Experimental data taken from patent publication US6770458.
These are yes or no findings as the source states them, for the method shown. For some assays here: In cells and extracts the contact can be indirect. Some results given as binding are weak or reduced against the parent protein; the word gives no strength. Sequences can lack the tags named with a protein.

Sequences of proteins named here, by UniProt entry; tags and fusion partners are left off. Residues count along the entry.
UniProt P37173, residues 23-567: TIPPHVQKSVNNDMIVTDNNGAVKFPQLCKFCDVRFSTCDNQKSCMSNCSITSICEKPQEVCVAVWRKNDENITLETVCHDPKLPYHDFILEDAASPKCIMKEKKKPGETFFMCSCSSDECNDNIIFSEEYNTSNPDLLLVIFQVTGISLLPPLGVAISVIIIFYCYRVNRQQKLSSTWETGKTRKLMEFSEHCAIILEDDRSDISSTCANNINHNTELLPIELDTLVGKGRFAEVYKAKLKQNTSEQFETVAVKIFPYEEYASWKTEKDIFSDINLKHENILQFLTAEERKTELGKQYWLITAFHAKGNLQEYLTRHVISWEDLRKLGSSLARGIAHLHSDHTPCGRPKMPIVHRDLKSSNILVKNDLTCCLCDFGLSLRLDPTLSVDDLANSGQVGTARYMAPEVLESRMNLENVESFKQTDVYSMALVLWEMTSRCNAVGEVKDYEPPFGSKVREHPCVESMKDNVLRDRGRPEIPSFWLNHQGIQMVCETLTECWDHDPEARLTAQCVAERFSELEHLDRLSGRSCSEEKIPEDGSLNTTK

Experiments:
[1] = target: T1, TβR-I(TD)-HA, constitutively active TβR-I T204D (UniProt P36897); assay: sequential immunoprecipitation (anti-Flag, Flag peptide elution, anti-Myc), anti-HA blot, COS-1 cells
T1 sequence (looked up): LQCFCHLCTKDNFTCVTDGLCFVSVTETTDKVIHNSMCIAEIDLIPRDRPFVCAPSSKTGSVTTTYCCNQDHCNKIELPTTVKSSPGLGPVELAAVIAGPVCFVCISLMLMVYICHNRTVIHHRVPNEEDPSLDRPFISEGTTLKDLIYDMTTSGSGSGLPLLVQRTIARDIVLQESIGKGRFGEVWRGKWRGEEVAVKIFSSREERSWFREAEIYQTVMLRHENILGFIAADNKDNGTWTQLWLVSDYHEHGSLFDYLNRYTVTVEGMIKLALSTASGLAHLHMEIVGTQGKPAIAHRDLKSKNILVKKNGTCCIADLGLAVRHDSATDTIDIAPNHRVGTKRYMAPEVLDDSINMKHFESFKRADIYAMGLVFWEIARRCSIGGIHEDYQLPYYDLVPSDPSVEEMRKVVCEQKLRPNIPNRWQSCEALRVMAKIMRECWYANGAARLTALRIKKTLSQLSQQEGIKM

[2] = target: T1, TβR-I(TD)-HA, constitutively active TβR-I T204D; assay: sequential immunoprecipitation (restated in the discussion)
STRAP-HA (mouse) [3] = target: T2, STRAP-HA (mouse) (UniProt Q9Z1Z2); assay: co-immunoprecipitation (restated in the discussion)
T2 sequence: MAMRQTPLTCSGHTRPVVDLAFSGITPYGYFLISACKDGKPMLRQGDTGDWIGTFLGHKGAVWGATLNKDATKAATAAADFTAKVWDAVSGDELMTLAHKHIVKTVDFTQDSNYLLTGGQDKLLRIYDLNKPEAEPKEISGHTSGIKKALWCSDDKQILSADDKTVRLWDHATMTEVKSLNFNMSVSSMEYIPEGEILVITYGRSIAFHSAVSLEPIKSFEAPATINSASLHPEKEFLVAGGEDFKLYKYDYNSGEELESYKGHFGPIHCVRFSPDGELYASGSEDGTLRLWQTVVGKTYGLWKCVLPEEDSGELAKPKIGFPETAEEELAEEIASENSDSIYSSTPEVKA

[4] = target: T3, HA-tagged wild type TβR-I (transforming growth factor β receptor I) (UniProt P36897); assay: as above
T3 sequence (looked up): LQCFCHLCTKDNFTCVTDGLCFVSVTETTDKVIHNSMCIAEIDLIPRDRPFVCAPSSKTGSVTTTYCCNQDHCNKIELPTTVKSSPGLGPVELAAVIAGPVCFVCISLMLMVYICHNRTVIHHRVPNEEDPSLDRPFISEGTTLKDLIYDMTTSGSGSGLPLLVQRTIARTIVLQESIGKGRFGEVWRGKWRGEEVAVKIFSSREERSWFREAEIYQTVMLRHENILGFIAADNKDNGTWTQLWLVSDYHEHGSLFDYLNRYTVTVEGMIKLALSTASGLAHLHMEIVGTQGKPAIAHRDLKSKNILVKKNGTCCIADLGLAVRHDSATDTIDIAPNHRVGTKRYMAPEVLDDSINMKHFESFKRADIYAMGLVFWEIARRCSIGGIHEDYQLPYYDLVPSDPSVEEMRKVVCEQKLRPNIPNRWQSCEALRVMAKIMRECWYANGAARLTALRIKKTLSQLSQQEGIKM

[5] = target: HA-tagged TβR-II (transforming growth factor β receptor II) (UniProt P37173); assay: as above
[6] = target: T1, TβR-I(TD)-HA, constitutively active TβR-I T204D; assay: sequential immunoprecipitation (anti-Flag, Flag peptide elution, anti-Myc), anti-HA blot
STRAP-HA (mouse) [7] = target: T2, STRAP-HA (mouse); assay: co-immunoprecipitation and immunoblot, transfected cells
[8] = target: T3, HA-tagged wild type TβR-I (transforming growth factor β receptor I); assay: co-immunoprecipitation and immunoblot, COS-1 cells, with or without TGF-β1 (240 pM)
[9] = target: HA-tagged TβR-II (transforming growth factor β receptor II) (UniProt P37173); assay: as above
STRAP-HA (mouse) [10] = target: T2, STRAP-HA (mouse); assay: co-immunoprecipitation and immunoblot, transfected COS-1 cells
[11] = target: T4, HA-tagged TβR-I K232R (kinase negative) (UniProt P36897); assay: as above
T4 sequence (looked up): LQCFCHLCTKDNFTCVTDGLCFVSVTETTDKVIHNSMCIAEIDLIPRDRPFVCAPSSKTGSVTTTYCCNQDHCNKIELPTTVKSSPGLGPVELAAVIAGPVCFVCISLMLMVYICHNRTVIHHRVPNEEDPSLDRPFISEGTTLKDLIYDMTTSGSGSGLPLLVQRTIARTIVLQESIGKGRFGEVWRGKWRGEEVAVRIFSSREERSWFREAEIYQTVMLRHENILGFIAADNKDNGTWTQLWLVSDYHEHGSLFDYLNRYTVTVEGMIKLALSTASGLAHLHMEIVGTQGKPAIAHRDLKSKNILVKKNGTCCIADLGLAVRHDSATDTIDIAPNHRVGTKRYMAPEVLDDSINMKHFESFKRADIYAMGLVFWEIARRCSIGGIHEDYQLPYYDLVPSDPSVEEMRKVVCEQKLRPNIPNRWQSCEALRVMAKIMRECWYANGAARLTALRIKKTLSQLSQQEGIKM

[12] = target: T3, HA-tagged wild type TβR-I (transforming growth factor β receptor I); assay: as above
[13] = target: HA-tagged TβR-II (transforming growth factor β receptor II) (UniProt P37173); assay: as above
[14] = target: T1, TβR-I(TD)-HA, constitutively active TβR-I T204D; assay: as above
[15] = target: T3, HA-tagged wild type TβR-I (transforming growth factor β receptor I); assay: affinity crosslinking with 125I-TGF-β1, anti-Flag immunoprecipitation, COS-1 cells
[16] = target: hexahistidine-tagged TβR-II (UniProt P37173); assay: as above
TβR-II-Flag = TβR-II-Flag (UniProt P37173); assay: anti-Flag immunoprecipitation, anti-HA blot, transfected COS-1 cells

Measured: binding

B1: STRAP-Flag (protein, not shown: small tags and cut ends)
chain: MAMRQTPLTCSGHTRPVVDLAFSGITPYGYFLISACKDGKPMLRQGDTGDWIGTFLGHKGAVWGATLNKDATKAATAAADFTAKVWDAVSGDELMTLAHKHIVKTVDFTQDSNYLLTGGQDKLLRIYDLNKPEAEPKEISGHTSGIKKALWCSDDKQILSADDKTVRLWDHATMTEVKSLNFNMSVSSMEYIPEGEILVITYGRSIAFHSAVSLEPIKSFEAPATINSASLHPEKEFLVAGGEDFKLYKYDYNSGEELESYKGHFGPIHCVRFSPDGELYASGSEDGTLRLWQTVVGKTYGLWKCVLPEEDSGELAKPKIGFPETAEEELAEEIASENSDSIYSSTPEVKA
not listed: TβR-II-Flag
binds: all other assays above

B2: STRAP-HA (protein, not shown: small tags and cut ends)
chain: MAMRQTPLTCSGHTRPVVDLAFSGITPYGYFLISACKDGKPMLRQGDTGDWIGTFLGHKGAVWGATLNKDATKAATAAADFTAKVWDAVSGDELMTLAHKHIVKTVDFTQDSNYLLTGGQDKLLRIYDLNKPEAEPKEISGHTSGIKKALWCSDDKQILSADDKTVRLWDHATMTEVKSLNFNMSVSSMEYIPEGEILVITYGRSIAFHSAVSLEPIKSFEAPATINSASLHPEKEFLVAGGEDFKLYKYDYNSGEELESYKGHFGPIHCVRFSPDGELYASGSEDGTLRLWQTVVGKTYGLWKCVLPEEDSGELAKPKIGFPETAEEELAEEIASENSDSIYSSTPEVKA
binds: TβR-II-Flag
